Strings that start with PEPTIDE1 are HELM notation: dots part the residues, brackets hold end groups and non-standard residues.
Test: general procedure: Boc solid-phase peptide synthesis; chloromethyl resin (Boc-amino acid Cs salt, ester bond)
Details: whole synthesis, based on the Boc-Met content of the resin

## PEPTIDE1{R.[dP].K.P.Q.Q.[dW].F.[dW].L.M.[am]}$$$$V2.0
  isolated yield: 15% of theory
